Usually AC50 stands for the concentration at which the activity in the assay is half-maximal.

These results are taken from PubChem BioAssay AID2685 (National Center for Advancing Translational Sciences (NCATS), 2010).

This assay in a line: qHTS Assay for Lipid Storage Modulators in Drosophila S3 Cells.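 As to cell number change: cells counted by Cell Tracker Red CMTPX staining in the red channel.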 The settings on record: BODIPY lipid droplet fluorescence, 18-24 h; for cell number change: measured here: cell count max response, cells fed with added oleic acid. Summed up:
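Laser-scanning cytometry quantifies lipid droplet accumulation (500–530 nm total intensity; droplet/cell object ratio) in oleic acid-fed (400 uM added) Drosophila S3 cells treated with a concentration series. 20 uM Triacsin C defined 100% inhibition.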
For orientation: qHTS replaces the single test concentration by a dilution series.

The mark [1] stands for this setting: measured here: cell number channel AC50, cells fed with added oleic acid.
The mark [2] stands for this setting: measured here: lipid fluorescence (Fed channel) AC50, cells fed with added oleic acid.

This is one part of the list. Further columns of the screen follow, without active or inactive calls. Compounds called inactive in the main read-out are mostly missing here. Words in brackets tell the shape of the fitted curve; partial curves, single points and poor fits give uncertain potencies.

For `Cc1cc(C)c2sc(N(CCCN(C)C)C(=O)CN3C(=O)c4ccccc4C3=O)nc2c1`, the AC50 under setting [1] is 0.146 µM [falling, full curve, poor fit] and the AC50 under setting [2] is 0.103 µM [falling, full curve, poor fit].

Turning to `Cn1c(=O)[nH]c(=O)c2c1nc(NCCCn1ccnc1)n2CCOc1ccccc1`, the cell number change is -7.82%.

In the case of `COc1ccc(NC2=NCCC(=O)N2Cc2cccs2)cc1`, the cell number change is -22.1%. Also, the concentration at half-maximal activity (AC50) under setting [2] is 0.82 µM [rising, full curve, poor fit].

`N#Cc1c(N)sc2c1CCN(C(=O)OCc1ccccc1)C2`: the AC50 runs as follows: under setting [1], 3.26 µM [rising, partial curve]; under setting [2], 2.91 µM [rising, partial curve].

As for `CCCCn1c(SCC(=O)Nc2ccccc2C(F)(F)F)nc2ccsc2c1=O`, the cell number change is -0.919%. Further, the AC50 under setting [2] is 6.51 µM [rising, single point].

In the case of `CC(=O)c1ccc(NC(=O)C2CCCC2)cc1`, the cell number change is 16.8%.

Take `COc1ccccc1N1CCN(C(=O)c2ccc(Cl)c(S(=O)(=O)N3CCOCC3)c2)CC1`: the cell number change came out at 1.52%. The AC50 under setting [2] is 29.1 µM [falling, single point].

On to `CCOC(=O)CSc1nnc(Cn2nnc(-c3ccccc3)n2)n1C`, for which the cell number change was -17%. Further, the AC50 under setting [2] is 1.64 µM [falling, full curve].

For the molecule `CCCN1Cc2cccc(C(=O)NCc3ccccc3OC)c2C1=O`, the AC50 under setting [1] was 0.461 µM [rising, full curve, poor fit] and the AC50 under setting [2] was 0.517 µM [rising, full curve].

Regarding `O=C(Nc1cc(-c2nc3ncccc3o2)ccc1Cl)c1cccs1`, the cell number change was -36.6%. In addition, under setting [1], the AC50 was 29.1 µM [falling, single point]. The AC50 under setting [2] was 29.1 µM [falling, single point].

Turning to `CCOC(=O)C(=Cc1ccc(F)cc1)C(=O)OCC`, the cell number change was -41.3%. In addition, the AC50 under setting [1] was 8.2 µM [falling, partial curve]. The AC50 under setting [2] is 6.51 µM [falling, full curve].

For the molecule `NC(=O)NC(Cc1ccccc1)C(=O)N1CCN(S(=O)(=O)c2ccc(Cl)cc2)CC1` (centres undefined), the cell number change was -24.1%. Also, the AC50 under setting [1] is 0.82 µM [falling, single point].

`Cc1cc2ccccc2nc1SCC(=O)N1CCCC1`: the cell number change was 14.5%. Moreover, the AC50 under setting [2] was 3.26 µM [rising, single point].

For `COc1ccc(CCNC(=O)Cn2nnc(C(=O)Nc3ccc(Br)cc3)c2N)cc1OC`, the cell number change was -68.3%. For the same molecule, the half-maximal activity concentration (AC50) under setting [1] is 18.4 µM [falling, single point].

With `CCOC(=O)N1CCN(c2c(N3CCN(C(=O)OCC)CC3)c(=O)c2=O)CC1`, the cell number change is -21.7%.

As to `CCCCn1c(N)c(N(CCC(C)C)C(=O)CSc2nncn2-c2ccccc2)c(=O)[nH]c1=O`, the cell number change is -6.27%. The AC50 under setting [2] was 0.92 µM [falling, partial curve].

With `Cc1ccc(C)c(CSc2nc3[nH]ncc3c(=O)[nH]2)c1`, the cell number change is -5.81%. The AC50 under setting [1] was 1.64 µM [falling, partial curve].

As to `O=C1C=C(c2ccccc2)C[C@H](c2cccs2)[C@H]1n1nnc([N+](=O)[O-])n1`, the cell number change was -7.15%. Besides, under setting [2], the AC50 is 13 µM [falling, single point].

With `C=C(C)Cn1c(CCn2c3ccccc3c3ccccc32)n[nH]c1=S`, the cell number change is -18.9%.

With `CCOCCn1c(=NC(=O)c2ccc(S(=O)(=O)N3CCOCC3)cc2)sc2cc(S(N)(=O)=O)ccc21`, the cell number change was -28.4%. Further, the AC50 under setting [1] was 2.31 µM [falling, full curve, poor fit].

As for `CNc1nc(N)c([N+](=O)[O-])c(NC2CCCCC2)n1`, the cell number change was -10.6%.

`Cc1ccc2c(COC(=O)C3=COCCO3)cc(=O)oc2c1`: the cell number change was -8.3%. Also, the concentration at half-maximal activity (AC50) under setting [2] is 14.6 µM [falling, partial curve, poor fit].

Regarding `Cc1ccccc1OCc1nnc(SCC(=O)Nc2ccc(N3CCOCC3)c(Cl)c2)n1C`, the cell number change amounted to 8.72%. Further, the AC50 under setting [1] was 1.3 µM [rising, partial curve]. Further, the AC50 under setting [2] was 0.517 µM [rising, full curve].

As to `Cc1cc2cc3c(cc2nc1SCC(=O)N1CCCC1)OCCO3`, the cell number change is -0.403%.

As for `CC(=O)N1CCN(C2=NC(=O)/C(=C/c3ccc(OS(=O)(=O)c4ccccc4)cc3)S2)CC1`, the cell number change came out at 0.763%. Also, the half-maximal activity concentration (AC50) under setting [2] is 0.651 µM [falling, full curve].

As for `COCCNC(=O)C(c1ccc(F)cc1)N(Cc1ccccc1)C(=O)CCC(=O)Nc1ccccn1` (centres undefined), the cell number change is -2.86%.

Regarding `Cn1c(=O)n(C)c2cc(/C=N/NC(N)=S)ccc21`, the cell number change stood at 41.8%. Under setting [1], the AC50 was 18.4 µM [rising, single point].

For `COc1cccc2cc(C(=O)C3=C(O)C(=O)N(Cc4ccco4)C3c3cccnc3)oc12` (centres undefined), the cell number change was 14.9%. Also, the AC50 under setting [2] is 29.1 µM [rising, single point].

In the case of `CCOc1ccccc1N1CCN(C/C=C/c2ccc(N(C)C)cc2)CC1`, the cell number change was -24.2%. The AC50 under setting [2] is 0.146 µM [falling, full curve, poor fit].

Regarding `Cc1cc2occ(CC(=O)N(CCC(C)C)c3c(N)n(Cc4ccccc4)c(=O)[nH]c3=O)c2cc1C`, the cell number change is -54%. Under setting [2], the AC50 was 2.06 µM [falling, partial curve].

As for `COc1cc(C(=O)OCc2cc(=O)oc3c(C)c(C)ccc23)ccc1OC(F)F`, the cell number change is -13.2%.

For `O=S(=O)(c1ccccc1)c1ccc(NCc2ccco2)cc1`, the cell number change is -0.106%. Besides, under setting [2], the AC50 was 0.366 µM [rising, full curve, poor fit].

Regarding `COc1ccc(Nc2nc(Nc3ccc(OC)cc3OC)nc(N3CCN(C)CC3)n2)c(OC)c1`, the cell number change is 17.8%. Further, the AC50 under setting [2] is 2.06 µM [rising, full curve, poor fit].

For the molecule `COc1ccc(NC(=O)Cc2ccc(-c3ccccc3)cc2)cn1`, the cell number change is 22.9%.

Regarding `CCOC(=O)C1CCCN(C(=O)c2cc(S(=O)(=O)N3CCCCC3)ccc2Cl)C1` (centres undefined), the cell number change amounted to 24.5%.

Take `CCOc1ccc(NC(=O)CSc2ncnc3c2sc2ccccc23)cc1`: the cell number change was determined as 1.82%. Besides, the AC50 under setting [2] is 0.058 µM [rising, full curve, poor fit].

On to `CCc1nn(C(CC)C(=O)NCC(C)c2ccccc2)c(=O)c2cc3occc3n12` (centres undefined), for which the cell number change came to 5.75%. For the same molecule, the half-maximal activity concentration (AC50) under setting [2] is 0.13 µM [rising, full curve, poor fit].

For the molecule `COc1ccc(CNS(=O)(=O)NCc2ccc(OC)c(OC)c2)cc1OC`, the cell number change is -1.09%. Further, the AC50 under setting [1] is 1.84 µM [rising, partial curve]. For the same molecule, the AC50 under setting [2] was 3.66 µM [rising, partial curve].

As to `COCCn1c(C)nnc1SCC(=O)NNC(=O)c1ccc(Cl)cc1`, the cell number change is 16%.

In the case of `COCCNC(=O)NC12CC3CC(CC(C3)C1)C2`, the cell number change was determined as 47.5%. Further, the AC50 under setting [1] was 29.1 µM [rising, single point]. Also, under setting [2], the AC50 was 20.6 µM [rising, single point].

As to `COc1cccc(-n2c(C)cc(/C=C3\C(=N)N4N=C(CC(=O)N5CCOCC5)SC4=NC3=O)c2C)c1`, the cell number change came out at 22.7%.

With `CCCNC(=O)CSc1nccn1Cc1ccc(OC)cc1`, the cell number change is -1.14%.

As for `COCCN(CC(=O)Oc1ccccc1P(=O)(OC)OC)Cc1ccccc1`, the cell number change is -13%.

Consider `O=C1/C(=C/c2ccc(N3CCCC3)cc2)NC(=S)N1C1CC1`, for which the cell number change worked out at 5.69%.

As to `CCOC(=O)c1cccc(NC(=S)NC(=O)c2cccnc2)c1`, the cell number change is -37.8%. In addition, the concentration at half-maximal activity (AC50) under setting [1] is 29.1 µM [falling, single point].

Turning to `O=C(O)COc1ccccc1/C=N/NC(=O)C(O)c1ccccc1` (centres undefined), the cell number change was -0.794%. Besides, the AC50 under setting [2] was 6.51 µM [rising, single point].

On to `CC1Cc2ccccc2N1CC(=O)Nc1ccc(N2CCOCC2)cc1` (centres undefined), for which the cell number change was 9.49%. The AC50 under setting [2] was 2.91 µM [rising, single point].

Take `COc1ccc(/C=C2\SC(=O)N(CCNC(=O)C3CSC4(C)CCC(=O)N34)C2=O)cc1` (centres undefined): the cell number change was -13%. Further, under setting [2], the AC50 is 0.00461 µM [falling, full curve, poor fit].

Take `Cc1cc(C(=O)Nc2ccccc2)c2ccccc2n1`: the cell number change is -3.02%. In addition, the AC50 under setting [2] is 29.1 µM [rising, single point].

Consider `O=C(CCC(=O)N1CCOCC1)c1ccc(F)cc1`, for which the cell number change is -19.8%. Moreover, the AC50 under setting [2] is 3.26 µM [falling, partial curve, poor fit].

As to `O=C(O)CCSC(=S)N1CCOCC1`, the cell number change is 8.64%.

On to `Cc1csc(C(=O)NCC(=O)NNC(=O)c2cccc(Cl)c2)c1`, for which the cell number change was -0.379%. The AC50 under setting [2] was 6.51 µM [rising, single point].

`COC(=O)c1ccc(C(=O)OC)c(NC(=S)N2CCC(C(N)=O)CC2)c1`: the cell number change is -40.8%. The AC50 under setting [1] is 0.58 µM [falling, full curve].

On to `CCCS(=O)(=O)N1CCN(C(=O)COc2ccc(OC)cc2)CC1`, for which the cell number change was found to be 43.7%. Besides, the AC50 under setting [1] was 9.2 µM [rising, partial curve].

Regarding `Cc1ccc(C(=O)Nc2cccnc2)cc1NC(=O)c1ccco1`, the cell number change came to 10.1%. In addition, under setting [1], the AC50 was 0.0291 µM [rising, full curve, poor fit].

On to `CSc1ccc(CN(C)CC(=O)NCc2ccc(F)cc2)cc1`, for which the cell number change turned out to be 144%. Further, the AC50 under setting [1] is 25.9 µM [rising, partial curve]. The AC50 under setting [2] was 20.6 µM [rising, single point].

As to `CCC(=O)N1c2ccccc2C(N(C(=O)CC)c2ccccc2)CC1C` (centres undefined), the cell number change amounted to 10.5%. Moreover, the AC50 under setting [2] was 4.11 µM [rising, partial curve, poor fit].

With `COc1cc(/C=C(\C#N)c2nc3ccccc3[nH]2)ccc1O`, the cell number change is -46.1%. The AC50 under setting [1] is 13 µM [falling, partial curve]. Besides, under setting [2], the AC50 is 14.6 µM [falling, partial curve].

As to `CCC(C)NC(=O)Cn1cnc([N+](=O)[O-])c1` (centres undefined), the cell number change stood at 1.65%. Under setting [2], the AC50 is 18.4 µM [rising, single point].

For `COCCNc1nc(Cl)c(C#N)s1`, the cell number change was 8.27%. Moreover, the AC50 under setting [2] was 0.092 µM [falling, full curve, poor fit].

As to `COc1cccc(C(=O)COC(=O)C2CC3CCCC(C2)C3=O)c1` (centres undefined), the cell number change was -15.7%. The concentration at half-maximal activity (AC50) under setting [1] was 6.51 µM [falling, single point]. Under setting [2], the AC50 is 6.51 µM [falling, single point].

Consider `O=C(Cc1ccccc1)Nc1cccc(-c2nc3ncccc3o2)c1`, for which the cell number change was -171%. For the same molecule, the AC50 under setting [1] is 29.1 µM [falling, single point].

For the molecule `COC(=O)c1ccc(/C=C(\C#N)c2nc3ccccc3s2)cc1`, the cell number change is 40.1%. Moreover, under setting [1], the AC50 was 18.4 µM [rising, partial curve]. The AC50 under setting [2] was 4.11 µM [rising, full curve, poor fit].
